The other results are listed elsewhere or left out.
B1: il2ra_site1_1z92_sap_14_mot_HHH_b2_05238_af2_000000252_0001_38_55_H_._HHH_b1_07235_0001_0000500020_0000001_0_0001_af2pred_0001_af2pred_1_swapped (protein)
chain: SSSSDEELEEFAEQVVEELVREFGLSEHDKEALERDAEAAVRAGFSPRSIRIALRRAVEDQSSSS
B2: il2ra_site1_2b5i_sap_7_mot_HHH_b1_00824_af2_000000079_0001_41_56_H_._706564c13a40034bb3de594a58ae2d05_0001_0001_0000300014_0000001_0_0001_af2pred_dldesign_0_af2 … (protein)
chain: SSSSSSPREDIEALIAEARALHEAGEPERARRLLTLARRLARKHDDAEALARIAEVEAELSSSSS
B3: il2ra_site1_2b5i_normal_mot_HHH_b1_00095_000000042_0001_1_14_H_._HHH_b2_06882_af2_0001_0000200010_0000001_0_af2pred_dldesign_0_af2pred (protein)
chain: SSSSSSPEALAAEAKARADELRKAGKRREAIELLEETAKELGKLNDPKAEELIDELAKLISSSSS
B4: il2ra_site2_3nfp_sap_23_mot_HHH_b1_02676_000000238_0001_38_56_H_._HHH_b2_07018_0001_0000200005_0000001_0_0001 (protein)
chain: SSSSDEEEELEEYIKELEKLLEEGDKEEFERLLREASQLAWEANDTEIFMLLAELLLKVASSSSS
B5: il2ra_site1_3nfp_sap_14_mot_HHH_b1_06981_000000192_0001_1_19_H_._7a3d71bd8e0044baaa50656571eb2fb7_0001_af2_0001_0000100007_0000001_0_0001_af2pred_0001_af2pred_1 (protein)
chain: SSSSDLERIEELLRQAHELAERGNYEEARRLIEEALEIAEELGDEHTRKILEHLLKILESISSSS
B6: il2ra_site2_2erj_normal_mot_HHH_b1_03107_000000098_0001_39_52_H_._HHH_b1_08755_af2_0001_0000400023_0000001_0 (protein)
chain: SSSSDELYERVAELLVQAQEAYQRGDEELLEELLEEARRVAEEANSPALRRYVEYVRRDASSSSS
B7: il2ra_site1_3nfp_sap_24_mot_bca1cc675e315f79de6ed5a5a20872d8_0001_000000179_0001_36_50_H_._beb1d263b9c7401a962785d3a1373af0_0001_af2_0001_0000600024_0000001_0_0 … (protein)
chain: SSSSDELQKRVEELLKRISELLQEGDEEEARKLIEEVEELAEEANSPAAKLLAERLERLVDSSSS
B8: il2ra_site1_1z92_normal_mot_b1fbee8209167eaadba3689d49187f1a_0001_1_af2_000000019_0001_16_31_H_._HHH_b2_02076_af2_0001_0000100014_0000001_0_af2pred_0001_af2pred … (protein)
chain: SSSSSEEEELEKLVEELIKEYGADEHNKEALERDAQHSREAGFSERNIEQALRSAIRLLLSSSSS
B9: il2ra_site1_1z92_sap_14_mot_3afbd42359c492d9a5ba12d7e5b15de5_0001_000000167_0001_17_33_H_._HHH_b1_03999_0001_0000300027_0000001_0_0001_af2pred_0001_af2pred (protein)
chain: SEEVEFDLELAKKRGIPPRSVVRAVLSALKSLGIPPEEALELVREALERLNDPELEKVLEELKEK
B10: il2ra_site1_3nfp_sap_20_mot_HHH_b1_05070_af2_000000282_0001_43_57_H_._HHH_b2_02281_0001_0000300009_0000001_1_0001 (protein)
chain: DLEEILERIEEILEELNTKMARDLLRAIEWLKRAAPPEEVIKAILWAAEAAGDPEVVRLLREAVK
B11: il2ra_site2_3nfp_sap_15_mot_HHH_b1_03180_000000083_0001_40_56_H_._0f396a3c5b789435df01682a1ed80b82_0001_1_af2_0001_0000100005_0000001_0_0001 (protein)
chain: SSSSDEHKELIRKALEALEAAVEEGDEETFELLTEYLRAAIELANDPELRERLEELEERISSSSS
B12: il2ra_site1_3nfp_normal_mot_HHH_b1_01335_af2_000000105_0001_39_53_H_._HHH_b2_06296_0001_0000500034_0000001_0_af2pred_0001_af2pred_swapped (protein)
chain: SSSSDEEEEEVRELLRQAEEAEEEGDTEKALELVEEAERLAREIDNPELYEEVLEVLRRIASSSS
B13: il2ra_site2_3nfp_normal_mot_HHH_b1_02297_000000279_0001_41_58_H_._HHH_b2_05334_af2_0001_0000500026_0000001_0 (protein)
chain: SSSSEEERVEELIEEAERLLKEGDPEEARRVVARAAHIAFQLNNFELFALVNELAELIIRLSSSS
B14: il2ra_site1_1z92_normal_mot_HHH_b1_08597_af2_000000202_0001_42_56_H_._6e12af4a48b4634929ba45889b8be782_0001_0001_0000600034_0000001_0 (protein)
chain: NVEWAIENLERLARLQGNPEVERVLRRVLELLKKNEEEAEEFLEELVRELGDKLLRLLLRMLKTA
B15: il2ra_site1_2b5i_normal_mot_HHH_b1_01419_af2_000000080_0001_42_53_H_._HHH_b2_02924_af2_0001_0000200024_0000001_0 (protein)
chain: SSSSSNEEVQELFLEASRAFRKGDQEEAERILEEALKLAREAGNEREERQIEFMIKRVRGSSSSS
B16: il2ra_site2_2erj_normal_mot_6d5f7cbc25fed124e3eb7f952334b9cf_0001_af2_000000048_0001_1_13_H_._HHH_b1_00839_0001_0000100007_0000001_0 (protein)
chain: SSSSDEEEKLSREIFEEARRLFKEGNIEEARELVEEAIRLAEELNDPAILAALRALLRILESSSS
B17: il2ra_site1_1z92_normal_mot_HHH_b1_05598_af2_000000231_0001_1_16_H_._HHH_b2_05789_af2_0001_0000300041_0000001_0 (protein)
chain: SSSSSDEEELDEEAQELFHEAARIDDEEEVRRLLEEALELAREGNDENIARDLEQYLRALSSSSS
B18: il2ra_site1_2b5i_normal_mot_f5ff40796168375b462bec8614a1db4a_0001_1_000000138_0001_53_65_H_._HHH_b1_01842_0001_0000200006_0000001_0_af2pred_0001_af2pred_1 (protein)
chain: SSSSSDEELLQQSAEELIEEAKRIEDPERAQAILSLALSAARKANDEELEEEIEELLEELSSSSS

target: il2ra, P01589; experiment: yeast display titration

Apparent Kd, inactive:
B1 no binding seen
B2 no binding seen
B3 no binding seen
B4 no binding seen
B5 no binding seen
B6 no binding seen
B7 no binding seen
B8 no binding seen
B9 > 755 nM
B10 no binding seen
B11 no binding seen
B12 no binding seen
B13 no binding seen
B14 > 311 nM
B15 no binding seen
B16 no binding seen
B17 no binding seen
B18 no binding seen

Quoted at random: 2 entries already listed, in no set order.
Apparent Kd, inactive:
B17 no binding seen
B2 no binding seen

— PMC10163288
